Experimental findings from patent publication US20240092890A1 are described below.

The target of this test is T1, protein having an Fc region and a His-tag added to the N-terminus of SEQ ID NO: 1.
T1 sequence: RRMMRTKMRMRRM
Description: BLItz biolayer interferometry (Table 14). (In general: In BLI a coated tip is dipped into the sample, and binding shifts an interference pattern.)

These are yes or no findings as the source states them, for the method shown. Some results given as binding are weak or reduced against the parent protein; the word gives no strength.

B1: Antibody 16 (bispecific antibody)
heavy: QVQLQQSGAELVKPGSSVKISCKASGYTFTRNFIHWIKQQPGNGLEWIGWIFPGDGDTEYNQKFNGKATLTADKSSSTAYMQLSSLTSEDSAVYFCARGNYNYEYFDYWGQGVMVTVSSASTKGPSVFPLAPSSKSTSGGTAALGCLVKDYFPEPVTVSWNSGALTSGVHTFPAVLQSSGLYSLSSVVTVPSSSLGTQTYICNVNHKPSNTKVDKRVEPKSCGGGGSQVQLVQSGGGVVQPGRSLRLSCKASGYTFTRYTMHWVRQAPGKGLEWIGYINPSRGYTNYNQKVKDRFTISRDNSKNTAFLQMDSLRPEDTGVYFCARYYDDHYSLDYWGQGTPVTVSSGGGGSGGGGSGGGGSDIQMTQSPSSLSASVGDRVTITCSASSSVSYMNWYQQTPGKAPKRWIYDTSKLASGVPSRFSGSGSGTDYTFTISSLQPEDIATYYCQQWSSNPFTFGQGTKLQITRHHHHHH
light: DIQMTQSPASLSASLGETVSIECLASEDIYSYLAWYQQKPGKSPQLLIFAANRLQDGVPSRFSGSGSGTQFSLKISGMQPEDEGDYFCLQGSKFPYTFGPGTKLELNRTVAAPSVFIFPPSDEQLKSGTASVVCLLNNFYPREAKVQWKVDNALQSGNSQESVTEQDSKDSTYSLSSTLTLSKADYEKHKVYACEVTHQGLSSPVTKSFNRGEC
With B1, the binding result was “binds”.

B2: Antibody 18 (bispecific antibody)
heavy: QVQLQQSGAELVKPGSSVKISCKASGYTFTRNFIHWIKQQPGNGLEWIGWIFPGDGDTEYNQKFNGKATLTADKSSSTAYMQLSSLTSEDSAVYFCARGNYNYEYFDYWGQGVMVTVSSASTKGPSVFPLAPSSKSTSGGTAALGCLVKDYFPEPVTVSWNSGALTSGVHTFPAVLQSSGLYSLSSVVTVPSSSLGTQTYICNVNHKPSNTKVDKRVEPKSCGGGGSQVQLVQSGGGVVQPGRSLRLSCKASGYTFTRYTMHWVRQAPGKGLEWIGYINPSRGYTNYNQKVKDRFTISRDNSKNTAFLQMDSLRPEDTGVYFCARYYDDHYSLDYWGQGTPVTVSSGGGGSGGGGSGGGGSDIQMTQSPSSLSASVGDRVTITCSASSSVSYMNWYQQTPGKAPKRWIYDTSKLASGVPSRFSGSGSGTDYTFTISSLQPEDIATYYCQQWSSNPFTFGQGTKLQITRAAAGGGQPREPQVYTLPPSREEMTKNQVSLTCLVKGFYPSDIAVEWESNGQPENNYKTTPPVLDSDGSFFLYSKLTVDKSRWQQGNVFSCSVMHEALHNHYTQKSLSLSPGK
light: DIQMTQSPASLSASLGETVSIECLASEDIYSYLAWYQQKPGKSPQLLIFAANRLQDGVPSRFSGSGSGTQFSLKISGMQPEDEGDYFCLQGSKFPYTFGPGTKLELNRTVAAPSVFIFPPSDEQLKSGTASVVCLLNNFYPREAKVQWKVDNALQSGNSQESVTEQDSKDSTYSLSSTLTLSKADYEKHKVYACEVTHQGLSSPVTKSFNRGEC
Turning to B2, the binding result is “binds”.

B3: Antibody 19 (bispecific antibody)
heavy: QVQLQQSGAELVKPGSSVKISCKASGYTFTRNFIHWIKQQPGNGLEWIGWIFPGDGDTEYNQKFNGKATLTADKSSSTAYMQLSSLTSEDSAVYFCARGNYNYEYFDYWGQGVMVTVSSASTKGPSVFPLAPSSKSTSGGTAALGCLVKDYFPEPVTVSWNSGALTSGVHTFPAVLQSSGLYSLSSVVTVPSSSLGTQTYICNVNHKPSNTKVDKRVEPKSCGGGGSQVQLVQSGGGVVQPGRSLRLSCKASGYTFTRYTMHWVRQAPGKGLEWIGYINPSRGYTNYNQKVKDRFTISRDNSKNTAFLQMDSLRPEDTGVYFCARYYDDHYSLDYWGQGTPVTVSSGGGGSGGGGSGGGGSDIQMTQSPSSLSASVGDRVTITCSASSSVSYMNWYQQTPGKAPKRWIYDTSKLASGVPSRFSGSGSGTDYTFTISSLQPEDIATYYCQQWSSNPFTFGQGTKLQITRGGGGSQVQLQQSGAELVKPGSSVKISCKASGYTFTRNFIHWIKQQPGNGLEWIGWIFPGDGDTEYNQKFNGKATLTADKSSSTAYMQLSSLTSEDSAVYFCARGNYNYEYFDYWGQGVMVTVSSASTKGPSVFPLAPSSKSTSGGTAALGCLVKDYFPEPVTVSWNSGALTSGVHTFPAVLQSSGLYSLSSVVTVPSSSLGTQTYICNVNHKPSNTKVDKRVEPKSCHHHHHH
light: DIQMTQSPASLSASLGETVSIECLASEDIYSYLAWYQQKPGKSPQLLIFAANRLQDGVPSRFSGSGSGTQFSLKISGMQPEDEGDYFCLQGSKFPYTFGPGTKLELNRTVAAPSVFIFPPSDEQLKSGTASVVCLLNNFYPREAKVQWKVDNALQSGNSQESVTEQDSKDSTYSLSSTLTLSKADYEKHKVYACEVTHQGLSSPVTKSFNRGEC
In the case of B3, the binding result is recorded as “binds”.

B4: Antibody 22 (bispecific antibody)
heavy: QVQLVQSGGGVVQPGRSLRLSCKASGYTFTRYTMHWVRQAPGKGLEWIGYINPSRGYTNYNQKVKDRFTISRDNSKNTAFLQMDSLRPEDTGVYFCARYYDDHYSLDYWGQGTPVTVSSGGGGSGGGGSGGGGSDIQMTQSPSSLSASVGDRVTITCSASSSVSYMNWYQQTPGKAPKRWIYDTSKLASGVPSRFSGSGSGTDYTFTISSLQPEDIATYYCQQWSSNPFTFGQGTKLQITRGGGGSQVQLQQSGAELVKPGSSVKISCKASGYTFTRNFIHWIKQQPGNGLEWIGWIFPGDGDTEYNQKFNGKATLTADKSSSTAYMQLSSLTSEDSAVYFCARGNYNYEYFDYWGQGVMVTVSSASTKGPSVFPLAPSSKSTSGGTAALGCLVKDYFPEPVTVSWNSGALTSGVHTFPAVLQSSGLYSLSSVVTVPSSSLGTQTYICNVNHKPSNTKVDKRVEPKSCAAAGGGQPREPQVYTLPPSREEMTKNQVSLTCLVKGFYPSDIAVEWESNGQPENNYKTTPPVLDSDGSFFLYSKLTVDKSRWQQGNVFSCSVMHEALHNHYTQKSLSLSPGK
light: DIQMTQSPASLSASLGETVSIECLASEDIYSYLAWYQQKPGKSPQLLIFAANRLQDGVPSRFSGSGSGTQFSLKISGMQPEDEGDYFCLQGSKFPYTFGPGTKLELNRTVAAPSVFIFPPSDEQLKSGTASVVCLLNNFYPREAKVQWKVDNALQSGNSQESVTEQDSKDSTYSLSSTLTLSKADYEKHKVYACEVTHQGLSSPVTKSFNRGEC
Consider B4, for which the binding result was “binds”.

B5: Antibody 20 (bispecific antibody)
heavy: QVQLVQSGGGVVQPGRSLRLSCKASGYTFTRYTMHWVRQAPGKGLEWIGYINPSRGYTNYNQKVKDRFTISRDNSKNTAFLQMDSLRPEDTGVYFCARYYDDHYSLDYWGQGTPVTVSSGGGGSGGGGSGGGGSDIQMTQSPSSLSASVGDRVTITCSASSSVSYMNWYQQTPGKAPKRWIYDTSKLASGVPSRFSGSGSGTDYTFTISSLQPEDIATYYCQQWSSNPFTFGQGTKLQITRGGGGSQVQLQQSGAELVKPGSSVKISCKASGYTFTRNFIHWIKQQPGNGLEWIGWIFPGDGDTEYNQKFNGKATLTADKSSSTAYMQLSSLTSEDSAVYFCARGNYNYEYFDYWGQGVMVTVSSASTKGPSVFPLAPSSKSTSGGTAALGCLVKDYFPEPVTVSWNSGALTSGVHTFPAVLQSSGLYSLSSVVTVPSSSLGTQTYICNVNHKPSNTKVDKRVEPKSCHHHHHH
light: DIQMTQSPASLSASLGETVSIECLASEDIYSYLAWYQQKPGKSPQLLIFAANRLQDGVPSRFSGSGSGTQFSLKISGMQPEDEGDYFCLQGSKFPYTFGPGTKLELNRTVAAPSVFIFPPSDEQLKSGTASVVCLLNNFYPREAKVQWKVDNALQSGNSQESVTEQDSKDSTYSLSSTLTLSKADYEKHKVYACEVTHQGLSSPVTKSFNRGEC
For B5, the binding result is recorded as “binds”.

B6: Antibody 9 (bispecific antibody)
chain: QVQLQQSGAELVKPGSSVKISCKASGYTFTRNFIHWIKQQPGNGLEWIGWIFPGDGDTEYNQKFNGKATLTADKSSSTAYMQLSSLTSEDSAVYFCARGNYNYEYFDYWGQGVMVTVSSGGGGSGGGGSGGGGSDIQMTQSPASLSASLGETVSIECLASEDIYSYLAWYQQKPGKSPQLLIFAANRLQDGVPSRFSGSGSGTQFSLKISGMQPEDEGDYFCLQGSKFPYTFGPGTKLELNGGGGSQVQLVQSGGGVVQPGRSLRLSCKASGYTFTRYTMHWVRQAPGKGLEWIGYINPSRGYTNYNQKVKDRFTISRDNSKNTAFLQMDSLRPEDTGVYFCARYYDDHYSLDYWGQGTPVTVSSGGGGSGGGGSGGGGSDIQMTQSPSSLSASVGDRVTITCSASSSVSYMNWYQQTPGKAPKRWIYDTSKLASGVPSRFSGSGSGTDYTFTISSLQPEDIATYYCQQWSSNPFTFGQGTKLQITRHHHHHH
Regarding B6, the binding entry is on record as “binds”.
